Our source for the T/C and survivor count values is PubChem BioAssay AID206 (DTP/NCI, 2004).

The list shows only some results of the screen, not a fair sample: it is rich in T/C values a quarter to a half above the control, in often repeated tests (any T/C) and in doses without a T/C. Other doses and runs of a compound stand elsewhere. T/C is the treated group as % of the vehicle group. Schedules are NCI's codes, read here as Q, the interval in days (D) or hours (H), X, the number of doses. Some doses have a count of surviving animals in place of a T/C: the source holds a T/C of zero for them, seemingly a mark for toxic or unscored doses. Survivors were counted at the toxicity check, usually on the fifth day, unless a day is given; later deaths do not show. Positions of bridges follow the written chain, without caps; N, C: chain ends. Non-standard residues stand in square brackets, D forms with d. Residues, ends and D or L forms follow the SMILES beside them. Chains are numbered I, II in the order given. *: point of attachment. Quinoxaline2carbonyl = O=C(c1cnc2ccccc2n1)*; NMeV = CN[CH](C(=O)O)C(C)C; NMeC = CN[CH](CS)C(=O)O

For the assay, the system named is nude mice, HT29 intrarenal xenograft, tumor weight T/C. Briefly: NCI In Vivo Anticancer Drug Screen. Data for tumor model HT29;CX-1 Human Adenocarcinoma (MER+) (intrarenal inoculation) in NU/NU Swiss (nude) mice. The note with it: T/C endpoint: mean tumor weight change, higher T/C = larger tumour. Summed up: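 Mice with transplanted tumors are dosed with compound while controls get vehicle only. Survival or tumor burden is then assessed per group, and the treated value is expressed relative to control.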

[1] abbreviates: dose: 300.0 mg/kg/injection, schedule: Q04DX004 (sc), vehicle: saline.
[2] abbreviates: dose: 100.0 mg/kg/injection, schedule: Q04DX004 (sc), vehicle: saline with Tween-80, evaluated on day 15.

In the case of `C=C(OP(=O)(OC)OC)Sc1ccccc1C`, the T/C (dose: 200.0 micrograms/kg/injection, schedule: Q04DX004 (sc), vehicle: Klucel (hydroxypropylcellulose) (HPC), evaluated on day 15) was 138 % of control.

Regarding `COc1ccc(C(=O)/C(Br)=C/C(=O)O)cc1`, where the note is “dose: 100.0 mg/kg/injection, schedule: Q01DX010 (sc), vehicle: saline”, the survivor count was 1 of 3 on day 11.

As to `c1cc(-c2cc3ccc(C4=NCCN4)cc3[nH]2)ccc1C1=NCCN1`, the survivor count (dose: 200.0 mg/kg/injection, schedule: Q04DX004 (sc), vehicle: saline) is on record as 0 of 5 on day 15.

`CNC(=O)c1cccc2c(Nc3ccc(NS(C)(=O)=O)cc3OC)c3cccc(C)c3nc12`: under “dose: 200.0 mg/kg/injection, schedule: Q04DX004 (sc), vehicle: other”, the survivor count was 1 of 3 on day 15.

`COc1cccc2c1C(=O)c1c(O)c3c(c(O)c1C2=O)CC(O)(/C(C)=N/NC(=O)CCC(=O)N/N=C(\C)C1(O)Cc2c(O)c4c(c(O)c2C(OC2CC(N)C(O)C(C)O2)C1)C(=O)c1c(OC)cccc1C4=O)CC3OC1CC(N)C(O)C(C)O1` (stereo not given): the survivor count is given as 0 of 3 on day 20 (dose: 50.0 mg/kg/injection, schedule: Q01DX010 (sc), vehicle: water) and 1 of 3 on day 15 (dose: 125.0 mg/kg/injection, schedule: Q04DX004 (sc), vehicle: water).

On to `CCCCCCC(=O)CC(SCC)c1ccccc1Cl` (stereo not given), for which, for the setting “dose: 600.0 mg/kg/injection, schedule: Q04DX004 (sc), vehicle: saline with Tween-80, evaluated on day 15”, the T/C was 126 % of control.

For `Nc1ncnc2c1ncn2C1OC(CO)C(O)C1O` (stereo not given), the survivor count under setting [1] is 0 of 6 on day 15.

Regarding `OCC1OC(n2cnc3c2NC=NC[C@H]3O)CC1O` (stereo not given in full), the survivor count runs as follows: (dose: 4.0 mg/kg/injection, schedule: Q01DX010 (sc), vehicle: water) 0 of 3 on day 11; (dose: 8.0 mg/kg/injection, schedule: Q01DX010 (sc), vehicle: water) 0 of 3 on day 11.

For `Nc1cc(Cl)c2[nH]cnc2n1`, the T/C (dose: 200.0 mg/kg/injection, schedule: Q04DX004 (sc), vehicle: water, evaluated on day 15) is 146 % of control. Further, under “dose: 800.0 mg/kg/injection, schedule: Q04DX004 (sc), vehicle: water”, the survivor count is 3 of 6 on day 15.

`COc1cc2cc3c4cc(OC)c(OC)cc4cc[n+]3c(C)c2cc1OC` (tested in a mixture with another compound): the survivor count is on record as 0 of 3 on day 11 (dose: 200.0 mg/kg/injection, schedule: Q01DX010 (sc), vehicle: saline) and 0 of 3 on day 11 (dose: 400.0 mg/kg/injection, schedule: Q01DX010 (sc), vehicle: saline).

Consider `COc1ccc(C(=O)C(CN(C)C)CN(C)C)cc1`, for which the survivor count is, setting by setting: (dose: 50.0 mg/kg/injection, schedule: Q04DX004 (sc), vehicle: saline) 3 of 6 on day 15; (dose: 100.0 mg/kg/injection, schedule: Q04DX004 (sc), vehicle: saline) 0 of 6 on day 15.

On to `c1ccc2c(NCCCCCCCCNc3c4ccccc4nc4ccccc34)c3ccccc3nc2c1`, for which the survivor count (dose: 80.0 mg/kg/injection, schedule: Q01DX010 (sc), vehicle: Klucel (hydroxypropylcellulose) (HPC)) is reported as 0 of 3 on day 11.

As for `C/C(=N\NC(N)=O)c1cccc(/C(C)=N/NC(N)=O)n1`, under setting [2], the T/C was 137 % of control. Further, the survivor count (dose: 800.0 mg/kg/injection, schedule: Q04DX004 (sc), vehicle: saline with Tween-80) is reported as 3 of 6 on day 15.

Consider `Cc1c(N)nc(C(CC(N)=O)NCC(N)C(N)=O)nc1C(=O)NC(C(=O)NC(C)C(O)C(C)C(=O)NC(C(=O)NCCc1nc(-c2nc(C(=O)NCCCNCCCc3ccccn3)cs2)cs1)C(C)O)C(OC1OC(CO)C(O)C(O)C1OC1OC(CO)C(O)C(OC(N)=O)C1O)c1cnc[nH]1` (stereo not given), for which the survivor count (dose: 72.0 mg/kg/injection, schedule: Q04DX004 (sc), vehicle: water) is on record as 2 of 6 on day 15.

Consider `Cc1cc(NCCCCCCCNc2cc(C)nc3cc(N)ccc23)c2ccc(N)cc2n1`, for which the survivor count (dose: 100.0 mg/kg/injection, schedule: Q04DX004 (sc), vehicle: saline with Tween-80) is recorded as 1 of 6 on day 15.

`CN(C1=NS(=O)(=O)N=C(N(C)c2ccccc2)O1)c1ccccc1`: the T/C (dose: 900.0 mg/kg/injection, schedule: Q04DX004 (sc), vehicle: Klucel (hydroxypropylcellulose) (HPC), evaluated on day 15) is 148 % of control.

Turning to `C=C1C(=O)C23[C@H](O)C1CC[C@H]2[C@]12COC3(O)[C@@H](O)[C@@H]1C(C)(C)CC[C@@H]2O`, the T/C (dose: 12.5 mg/kg/injection, schedule: Q04DX004 (sc), vehicle: Klucel (hydroxypropylcellulose) (HPC), evaluated on day 15) was 128 % of control. The survivor count by setting is: (dose: 50.0 mg/kg/injection, schedule: Q04DX004 (sc), vehicle: Klucel (hydroxypropylcellulose) (HPC)) 0 of 6 on day 15; (dose: 100.0 mg/kg/injection, schedule: Q04DX004 (sc), vehicle: Klucel (hydroxypropylcellulose) (HPC)) 0 of 6 on day 15.

For `O=C1C(O)=C(c2ccccc2)C(=O)C(O)=C1c1ccccc1`, the survivor count under setting [1] is 3 of 6 on day 15 and the survivor count (dose: 600.0 mg/kg/injection, schedule: Q04DX004 (sc), vehicle: saline) is reported as 0 of 6 on day 15.

In the case of `CC1NC(=O)C(NC(=O)c2cnc3ccccc3n2)COC(=O)C(C(C)C)N(C)C(=O)C2CSSCC(C(=O)N(C)C(C(C)C)C(=O)OCC(NC(=O)c3cnc4ccccc4n3)C(=O)NC(C)C(=O)N2C)N(C)C1=O` (stereo not given) (I: Quinoxaline2carbonyl-SA[NMeC][NMeV] / II: Quinoxaline2carbonyl-SA[NMeC][NMeV]; ester I:1-II:C, I:C-II:1; disulfide I:3-II:3; configuration not given here), for the setting “dose: 800.0 mg/kg/injection, schedule: Q04DX004 (sc), vehicle: Klucel (hydroxypropylcellulose) (HPC)”, the survivor count was 1 of 6 on day 15.

In the case of `O=C1C=C2C(=CCOC2O)O1` (stereo not given), the survivor count by setting is: (dose: 8.0 mg/kg/injection, schedule: Q04DX004 (sc), vehicle: Klucel (hydroxypropylcellulose) (HPC)) 1 of 6 on day 15; (dose: 16.0 mg/kg/injection, schedule: Q04DX004 (sc), vehicle: Klucel (hydroxypropylcellulose) (HPC)) 0 of 6 on day 15.

For `CCCCCCCCCCCCCCCCS(=O)CC(O)COC(=O)c1ccc(C(=O)OCC(O)CS(=O)CCCCCCCCCCCCCCCC)cc1` (stereo not given), the survivor count (dose: 50.0 mg/kg/injection, schedule: Q01DX010 (sc), vehicle: saline + Tween-80 + alcohol) is 1 of 3 on day 20.

Regarding `C/C=C/c1cc2c(c(=O)o1)C(=O)[C@@H](O)[C@H](C)O2`, the T/C under setting [2] is 133 % of control. The survivor count (dose: 400.0 mg/kg/injection, schedule: Q04DX004 (sc), vehicle: saline with Tween-80) was 0 of 6 on day 15.

On to `CC[N+](CC)(CC)CC`, for which the T/C (dose: 1.5 mg/kg/injection, schedule: Q01DX010 (sc), vehicle: saline with Tween-80, evaluated on day 11) is 127 % of control. Where the note is “dose: 12.0 mg/kg/injection, schedule: Q01DX010 (sc), vehicle: saline with Tween-80”, the survivor count is 0 of 3 on day 11.

Regarding `O=C(Nc1ccc(C2=NCCN2)cc1)c1ccc(C(=O)Nc2ccc(C3=NCCN3)cc2)c(Cl)c1`, the survivor count (dose: 100.0 mg/kg/injection, schedule: Q01DX010 (sc), vehicle: water) is 0 of 3 on day 11.

For the compound `O=c1nc(Oc2ccccc2)nc2ncccn12`, the survivor count runs as follows: (dose: 200.0 mg/kg/injection, schedule: Q01DX010 (sc), vehicle: saline with Tween-80) 3 of 6 on day 20; (dose: 400.0 mg/kg/injection, schedule: Q01DX010 (sc), vehicle: saline with Tween-80) 1 of 6 on day 20.

In the case of `CCOC(=O)C(N)C[S][Sn]([CH3])([CH3])[Cl]` (stereo not given), the T/C (dose: 37.5 mg/kg/injection, schedule: Q04DX004 (sc), vehicle: saline, evaluated on day 15) is 125 % of control. Further, under “dose: 150.0 mg/kg/injection, schedule: Q04DX004 (sc), vehicle: saline”, the survivor count is on record as 1 of 6 on day 15.
